Assay results taken from PubChem BioAssay AID540276 (National Center for Advancing Translational Sciences (NCATS), 2011).
In all, about 300,000 compounds went through this assay and about 5,400 (1.8%) were called active. This list was built around the results that the source calls inconclusive (neither active nor inactive); the mix of calls is not that of the screen. Calls come from the whole dose curve; tested in HEK293 cells. A potency beside an inconclusive call is a rough fit, not a confirmed value.

experiment: qHTS for inhibitors of binding or entry into cells for Marburg Virus; conditions: Marburg virus pseudotyped entry inhibition, cell reporter; activity change, negative = inhibition: at 37.8 µM (top of the series) unless noted
% is set by controls: 0 for no effect and ±100 for the full control effect; potency is the fitted concentration of half-maximal effect.

Compound | Potency | activity change, negative = inhibition
COc1ccc(CC(=O)OCc2nnc(-c3ccccc3)o2)cc1 | inconclusive: 17.8 µM [activator, single point] | –
O=C(CNC(=O)c1ccccc1F)NCCc1ccc(Cl)cc1Cl | inconclusive: 12.6 µM [activator, partial curve, poor fit] | –
CN(Cc1ccccc1)c1nc(N)c([N+](=O)[O-])c(Nc2cccc(F)c2)n1 | – | inactive: -5.78%
CCOC(=O)c1ccccc1NC(=O)CN(c1ccccc1OCC)S(C)(=O)=O | inconclusive: 29.1 µM [inhibitor, single point] | –
O=C(Cn1cc(C(F)(F)F)cc(Cl)c1=O)NCc1ccccc1 | inconclusive: 3.55 µM [activator, partial curve, poor fit] | –
Cn1c(N)c(C(=O)COC(=O)c2ccc3ccccc3c2)c(=O)n(C)c1=O | inconclusive: 1.58 µM [inhibitor, partial curve, poor fit] | –
S=C(Nc1ccc(Br)cc1)NC1CCN(Cc2ccccc2)CC1 | inconclusive: 10 µM [inhibitor, partial curve, poor fit] | –
COc1ccc(C(=O)Nc2nc(CC(=O)NCCc3ccccc3)cs2)cc1 | – | inactive: -42.3%
Cn1c(=O)c(=O)n(C)c2cc(S(=O)(=O)NCCN3CCN(c4ccccc4F)CC3)ccc21 | inconclusive: 0.316 µM [activator, full curve, poor fit] | –
Cc1cccc(NC(=O)CCC(=O)N/N=C/c2ccc(O)cc2O)c1 | inconclusive: 11.2 µM [inhibitor, partial curve, poor fit] | –
CCN(CC)c1ccc(/C=N/N2C(=O)c3ccccc3C2=O)cc1 | – | inactive: 1.77%
C1=C(CCNc2ncnc3c2cnn3-c2ccccc2)CCCC1 | inconclusive: 0.398 µM [activator, single point] | –
Cc1csc(NC(=O)CSc2nsc(SCC(=O)Nc3nc(C)cs3)c2C#N)n1 | inactive | –
O=C(Nc1nc(-c2ccccc2)c(-c2ccccc2)o1)c1ccc(F)cc1 | active: 10 µM | –
COc1ccccc1OCC(=O)Nc1cccc(N(C)S(C)(=O)=O)c1 | inconclusive: 10.3 µM [activator, partial curve, poor fit] | –
O=C(O)c1cccc(NC(=O)c2ccccc2NC(=O)c2ccccc2F)c1 | inconclusive: 5.62 µM [inhibitor, single point] | –
CCCC(=O)c1c[nH]c(C(=O)NCCc2ccccn2)c1 | inconclusive: 35.5 µM [activator, partial curve, poor fit] | –
Cc1ccccc1Cn1c(C)cc(C)c(C#N)c1=O | inconclusive: 5.01 µM [inhibitor, full curve, poor fit] | –

An excerpt from above in order of molecular weight, falling:
Compound | Potency | activity change, negative = inhibition
O=C(O)c1cccc(NC(=O)c2ccccc2NC(=O)c2ccccc2F)c1 | inconclusive: 5.62 µM [inhibitor, single point] | –
Cc1cccc(NC(=O)CCC(=O)N/N=C/c2ccc(O)cc2O)c1 | inconclusive: 11.2 µM [inhibitor, partial curve, poor fit] | –
C1=C(CCNc2ncnc3c2cnn3-c2ccccc2)CCCC1 | inconclusive: 0.398 µM [activator, single point] | –
